Assay results taken from paper PMC12428531.
No constants are given. Whether binding was seen depends on the method and setting. Binding seen in cells or lysates may run through a third protein. Some entries that bind do so weakly or less than the wild type.

Chains of the proteins cited; added tags and fusions are not shown. Residues count along the entry.
UniProt P21802, residues 22-821: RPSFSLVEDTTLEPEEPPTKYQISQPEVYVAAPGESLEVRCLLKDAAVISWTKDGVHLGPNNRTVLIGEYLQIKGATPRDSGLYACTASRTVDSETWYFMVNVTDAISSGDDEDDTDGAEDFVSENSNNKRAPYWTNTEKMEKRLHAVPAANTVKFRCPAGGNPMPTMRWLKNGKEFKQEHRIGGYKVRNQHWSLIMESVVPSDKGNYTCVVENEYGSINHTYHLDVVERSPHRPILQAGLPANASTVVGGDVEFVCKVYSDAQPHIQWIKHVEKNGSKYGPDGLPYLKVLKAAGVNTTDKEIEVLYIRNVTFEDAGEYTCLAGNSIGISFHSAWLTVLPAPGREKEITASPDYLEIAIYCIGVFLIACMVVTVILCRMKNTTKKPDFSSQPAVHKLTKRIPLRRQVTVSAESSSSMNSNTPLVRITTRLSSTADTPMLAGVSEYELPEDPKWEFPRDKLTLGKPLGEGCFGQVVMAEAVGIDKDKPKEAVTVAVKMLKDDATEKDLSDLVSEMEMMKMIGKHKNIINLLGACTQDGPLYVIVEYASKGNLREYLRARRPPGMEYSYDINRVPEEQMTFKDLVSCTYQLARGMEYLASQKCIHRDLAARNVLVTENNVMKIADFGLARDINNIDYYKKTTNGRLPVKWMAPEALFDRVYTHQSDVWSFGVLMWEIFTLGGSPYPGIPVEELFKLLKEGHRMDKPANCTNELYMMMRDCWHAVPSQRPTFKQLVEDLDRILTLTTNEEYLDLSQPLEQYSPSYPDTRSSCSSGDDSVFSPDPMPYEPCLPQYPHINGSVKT
UniProt O95832: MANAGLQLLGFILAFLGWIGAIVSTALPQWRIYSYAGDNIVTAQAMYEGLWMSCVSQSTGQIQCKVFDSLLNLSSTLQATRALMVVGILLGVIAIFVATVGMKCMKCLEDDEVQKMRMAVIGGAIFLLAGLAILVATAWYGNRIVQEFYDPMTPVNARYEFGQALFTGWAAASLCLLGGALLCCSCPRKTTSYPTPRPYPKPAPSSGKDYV

Legend:
[1] = molecular target: FGFR2 (human (endogenous in GIST T-1R)) (UniProt P21802); test: co-IP; endogenous proteins in GIST T-1R whole cell lysates (TEB buffer: 50 mM Tris-HCl pH 7.5, 150 mM NaCl, 1% NP-40, 10% glycerol); precipitated with anti-CLDN1 mAb (sc-166338) or anti-FGFR2 Ab (ab281925) overnight at 4 °C, protein A and G Sepharose beads, blot for the partner; both directions
[2] = molecular target: claudin-1 (human (endogenous in GIST T-1R)) (UniProt O95832); test: as above

binding [1] | binding [2] | Substance
binds |  | claudin-1 (from UniProt O95832 1-211)
 | binds | FGFR2 (from UniProt P21802 22-821) (receptor)
